# Reference: patent US20260183437A1, “VHH ANTIBODY CONJUGATES WITH HETEROARYL CHELATORS” (ABDERA THERAPEUTICS INC., priority 2022, published 2026)
# Tested on: double stranded DNA
# Experiment: Polyreactivity ELISA
# Format: binding
# Settings: 10 μg/mL VHH-Fc; signal normalized to non-coated well
molecule,measurement,value
"Gantenerumab: control antibody in the polyreactivity assay (antibody, chains of the INN, looked up, V domains shown) VH: QVELVESGGGLVQPGGSLRLSCAASGFTFSSYAMSWVRQAPGKGLEWVSAINASGTRTYYADSVKGRFTISRDNSKNTLYLQMNSLRAEDTAVYYCARGKGNTHKPYGYVRYFDVWGQGTLVTVSS VL: DIVLTQSPATLSLSPGERATLSCRASQSVSSSYLAWYQQKPGQAPRLLIYGASSRATGVPARFSGSGSGTDFTLTISSLEPEDFATYYCLQIYNMPITFGQGTKVEIK","Polyreactivity Assay Score, dsDNA",>10
